Measurements: publication PMC10699508
No constants are given. Whether binding was seen depends on the method and setting. Binding seen in cells or lysates may run through a third protein. Some entries that bind do so weakly or less than the wild type.

Chains of the proteins cited; added tags and fusions are not shown. Lines headed by an entry give the natural chain unless they say otherwise; changes in a name come on top. A line that says so, or that is headed by a name, gives the form on record, which may keep a tag or linker.
UniProt P11802: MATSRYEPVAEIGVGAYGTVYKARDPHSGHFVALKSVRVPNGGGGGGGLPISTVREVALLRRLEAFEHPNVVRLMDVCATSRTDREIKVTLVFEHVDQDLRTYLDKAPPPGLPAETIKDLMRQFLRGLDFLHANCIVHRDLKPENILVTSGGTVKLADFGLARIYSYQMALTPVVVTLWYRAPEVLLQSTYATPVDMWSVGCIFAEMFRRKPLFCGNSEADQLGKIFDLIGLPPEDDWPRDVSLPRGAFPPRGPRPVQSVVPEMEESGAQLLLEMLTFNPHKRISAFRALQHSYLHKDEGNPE
UniProt P24385: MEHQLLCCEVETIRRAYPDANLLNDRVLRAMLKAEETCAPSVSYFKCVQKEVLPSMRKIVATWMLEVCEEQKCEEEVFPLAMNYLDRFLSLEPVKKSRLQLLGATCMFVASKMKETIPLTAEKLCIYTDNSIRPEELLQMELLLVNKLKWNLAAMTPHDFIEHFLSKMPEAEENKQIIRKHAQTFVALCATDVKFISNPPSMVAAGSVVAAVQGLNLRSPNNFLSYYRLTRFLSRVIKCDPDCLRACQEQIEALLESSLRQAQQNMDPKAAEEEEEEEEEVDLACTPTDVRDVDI
cyclin D1 single mutant of C7 (C8 present) (P24385, form named): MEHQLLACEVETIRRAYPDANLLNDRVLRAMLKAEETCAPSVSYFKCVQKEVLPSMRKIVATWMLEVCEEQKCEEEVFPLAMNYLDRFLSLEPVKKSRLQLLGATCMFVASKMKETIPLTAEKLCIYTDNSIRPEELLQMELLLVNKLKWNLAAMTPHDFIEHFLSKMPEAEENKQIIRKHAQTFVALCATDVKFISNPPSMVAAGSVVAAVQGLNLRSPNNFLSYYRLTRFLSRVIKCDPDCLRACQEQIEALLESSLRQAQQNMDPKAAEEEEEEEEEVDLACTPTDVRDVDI
cyclin D1 single mutant of C8 (C7 present) (P24385, form named): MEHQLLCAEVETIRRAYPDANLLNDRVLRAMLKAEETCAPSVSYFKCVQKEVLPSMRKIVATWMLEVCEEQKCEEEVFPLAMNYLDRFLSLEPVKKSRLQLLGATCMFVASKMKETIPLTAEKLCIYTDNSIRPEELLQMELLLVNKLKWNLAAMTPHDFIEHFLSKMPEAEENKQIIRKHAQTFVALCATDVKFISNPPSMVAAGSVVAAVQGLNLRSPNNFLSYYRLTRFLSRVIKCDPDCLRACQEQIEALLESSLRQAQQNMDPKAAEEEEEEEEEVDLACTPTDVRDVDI
UniProt P30281: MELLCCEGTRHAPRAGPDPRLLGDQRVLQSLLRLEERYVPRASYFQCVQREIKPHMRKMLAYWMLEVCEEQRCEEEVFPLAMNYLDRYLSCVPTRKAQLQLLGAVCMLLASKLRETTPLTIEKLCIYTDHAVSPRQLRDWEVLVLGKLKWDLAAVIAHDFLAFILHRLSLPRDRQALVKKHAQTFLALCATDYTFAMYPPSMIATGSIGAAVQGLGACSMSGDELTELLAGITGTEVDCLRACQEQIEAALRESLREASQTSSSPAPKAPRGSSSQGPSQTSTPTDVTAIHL

How the values were obtained:
C78A CDK4-FLAG [1] = biological target: C78A CDK4-FLAG (UniProt P11802); experiment: cross-linking; data not shown: disulfide formation (redox activity) of CDK4 cysteine to alanine mutants
CDK4 C202A = CDK4 C202A (UniProt P11802); experiment: as above
C135A CDK4-FLAG = C135A CDK4-FLAG (UniProt P11802); experiment: co-IP; CDK4-FLAG (WT or mutant) and WT cyclin D1-HA overexpressed and coimmunoprecipitated from HAP1 CDK4 KO cells (WT also from HPASMCs), then used in a kinase assay
C135S CDK4-FLAG = C135S CDK4-FLAG (UniProt P11802); experiment: as above
C78A CDK4-FLAG [2] = biological target: C78A CDK4-FLAG (UniProt P11802); experiment: as above
WT CDK4-FLAG [3] = biological target: WT CDK4-FLAG (UniProt P11802); experiment: as above
WT CDK4-FLAG [4] = biological target: WT CDK4-FLAG (UniProt P11802); experiment: cross-linking; CDK4-FLAG and cyclin D1-HA or cyclin D3-HA (WT or cysteine mutants) overexpressed in HPASMCs, H2O2 for 15 minutes (200 µM in the comparison); disulfide dimer by nonreducing immunoblot
[5] = biological target: CDK4 (cyclin-dependent kinase 4) (human (endogenous in HPASMCs and HPAECs)) (UniProt P11802); experiment: cross-linking; oxidant-induced intermolecular disulfide of endogenous proteins in human pulmonary arterial endothelial cells treated with H2O2; nonreducing immunoblot
[6] = biological target: CDK4 (cyclin-dependent kinase 4) (human (endogenous in HPASMCs and HPAECs)) (UniProt P11802); experiment: cross-linking; oxidant-induced intermolecular disulfide of endogenous proteins in HPASMCs (H2O2 15 min; also UV, auranofin, serum synchronisation; donor and IPAH cells); lysis in nonreducing sample buffer with 100 mmol/L maleimide; nonreducing immunoblot, complex at ≈75 kDa

Row | binding (WT CDK4-FLAG [4]) | binding [5] | binding [6] | Substance | also measured
1 | binds |  |  | WT cyclin D1-HA (from UniProt P24385 1-295) | binding (C78A CDK4-FLAG [1]): binds; binding (CDK4 C202A): binds; binding (C135A CDK4-FLAG): binds; binding (C135S CDK4-FLAG): binds; binding (C78A CDK4-FLAG [2]): binds; binding (WT CDK4-FLAG [3]): binds
2 | binds |  |  | WT cyclin D3-HA (from UniProt P30281 1-292) | 
3 |  | binds | binds | cyclin D1 (from UniProt P24385 1-295) | 
4 | binds |  |  | cyclin D1 single mutant of C7 (C8 present) (from UniProt P24385 1-295) | 
5 | binds |  |  | cyclin D1 single mutant of C8 (C7 present) (from UniProt P24385 1-295) | 
6 |  | binds | binds | cyclin D3 (from UniProt P30281 1-292) | 
